Results are given in words; binding and its absence hold for the method and conditions named. Binding seen in cells or lysates may run through a third protein. Some results given as binding are weak or reduced against the parent protein; the word gives no strength. Sequences can lack the tags named with a protein.
Target: T1, ATG9‐HA (UniProt Q7Z3C6)
T1 sequence: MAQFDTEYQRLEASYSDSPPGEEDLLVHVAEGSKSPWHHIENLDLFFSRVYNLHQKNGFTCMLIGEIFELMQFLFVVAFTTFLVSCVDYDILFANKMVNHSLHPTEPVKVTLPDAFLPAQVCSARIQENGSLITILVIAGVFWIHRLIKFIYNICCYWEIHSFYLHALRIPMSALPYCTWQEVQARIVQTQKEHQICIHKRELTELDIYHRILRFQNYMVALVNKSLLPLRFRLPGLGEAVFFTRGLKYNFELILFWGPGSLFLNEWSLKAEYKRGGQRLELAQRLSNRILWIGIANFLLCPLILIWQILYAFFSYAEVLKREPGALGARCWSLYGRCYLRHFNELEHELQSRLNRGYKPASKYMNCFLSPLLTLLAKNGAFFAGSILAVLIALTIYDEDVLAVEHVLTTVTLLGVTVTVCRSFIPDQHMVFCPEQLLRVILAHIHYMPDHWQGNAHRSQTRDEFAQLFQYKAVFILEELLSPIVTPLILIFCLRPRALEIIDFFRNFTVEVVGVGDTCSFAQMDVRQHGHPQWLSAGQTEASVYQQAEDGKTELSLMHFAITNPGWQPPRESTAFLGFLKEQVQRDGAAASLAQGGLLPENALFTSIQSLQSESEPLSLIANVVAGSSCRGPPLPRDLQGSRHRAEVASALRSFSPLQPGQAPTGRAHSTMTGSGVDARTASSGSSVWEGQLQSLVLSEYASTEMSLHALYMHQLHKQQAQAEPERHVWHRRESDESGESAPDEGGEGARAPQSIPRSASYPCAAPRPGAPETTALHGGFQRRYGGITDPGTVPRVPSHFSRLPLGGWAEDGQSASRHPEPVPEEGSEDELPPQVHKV
Test: co-IP; FLAG-tagged SEC31a and HA-tagged ATG9a in transfected cells, NP-40 lysate, immunoprecipitated with anti-FLAG or anti-HA on magnetic beads, western blot

- binding: binds
B1: SEC31a‐FLAG (protein, UniProt O94979 1-1220)
chain: MKLKEVDRTAMQAWSPAQNHPIYLATGTSAQQLDATFSTNASLEIFELDLSDPSLDMKSCATFSSSHRYHKLIWGPYKMDSKGDVSGVLIAGGENGNIILYDPSKIIAGDKEVVIAQNDKHTGPVRALDVNIFQTNLVASGANESEIYIWDLNNFATPMTPGAKTQPPEDISCIAWNRQVQHILASASPSGRATVWDLRKNEPIIKVSDHSNRMHCSGLAWHPDVATQMVLASEDDRLPVIQMWDLRFASSPLRVLENHARGILAIAWSMADPELLLSCGKDAKILCSNPNTGEVLYELPTNTQWCFDIQWCPRNPAVLSAASFDGRISVYSIMGGSTDGLRQKQVDKLSSSFGNLDPFGTGQPLPPLQIPQQTAQHSIVLPLKKPPKWIRRPVGASFSFGGKLVTFENVRMPSHQGAEQQQQQHHVFISQVVTEKEFLSRSDQLQQAVQSQGFINYCQKKIDASQTEFEKNVWSFLKVNFEDDSRGKYLELLGYRKEDLGKKIALALNKVDGANVALKDSDQVAQSDGEESPAAEEQLLGEHIKEEKEESEFLPSSGGTFNISVSGDIDGLITQALLTGNFESAVDLCLHDNRMADAIILAIAGGQELLARTQKKYFAKSQSKITRLITAVVMKNWKEIVESCDLKNWREALAAVLTYAKPDEFSALCDLLGTRLENEGDSLLQTQACLCYICAGNVEKLVACWTKAQDGSHPLSLQDLIEKVVILRKAVQLTQAMDTSTVGVLLAAKMSQYANLLAAQGSIAAALAFLPDNTNQPNIMQLRDRLCRAQGEPVAGHESPKIPYEKQQLPKGRPGPVAGHHQMPRVQTQQYYPHGENPPPPGFIMHGNVNPNAAGQLPTSPGHMHTQVPPYPQPQPYQPAQPYPFGTGGSAMYRPQQPVAPPTSNAYPNTPYISSASSYTGQSQLYAAQHQASSPTSSPATSFPPPPSSGASFQHGGPGAPPSSSAYALPPGTTGTLPAASELPASQRTGPQNGWNDPPALNRVPKKKKMPENFMPPVPITSPIMNPLGDPQSQMLQQQPSAPVPLSSQSSFPQPHLPGGQPFHGVQQPLGQTGMPPSFSKPNIEGAPGAPIGNTFQHVQSLPTKKITKKPIPDEHLILKTTFEDLIQRCLSSATDPQTKRKLDDASKRLEFLYDKLREQTLSPTITSGLHNIARSIETRNYSEGLTMHTHIVSTSNFSETSAFMPVLKVVLTQANKLGV

Source: publication PMC11600210
